This note sets out measurements from publication PMC12046049.

No constants are given. Whether binding was seen depends on the method and setting. For part of these data: Binding calls can cover weak binding; strength is not graded here.

The target of test [1] is full-length human HSPB7 (isoform 2) (human). The test is described as follows: native MS; FLNCd24 alone, and mixed at a monomer ratio of 1:1 with HSPB7, HSPB7ΔN or HSPB7ACD; 200 mM ammonium acetate pH 6.9 (full-length HSPB7: 1 M); both purified.
Test [2] concerns the target HSPB1ACD (α-crystallin domain of HSPB1) (human). Description: native MS; ACD incubated with C-terminal peptide, peptide titration; 200 mM ammonium acetate pH 6.9; acetonitrile added to the source housing; fit with a Hill slope model for 1:1 binding; both purified.
Test [3] addresses HSPB5ACD (α-crystallin domain of HSPB5) (human). The test is described as above.

B1: FLNCd24 (domain 24 of filamin C, residues 2630-2724), wild type (domain or fragment, UniProt Q14315 2630-2724)
chain: GSKFSSDASKVVTRGPGLSQAFVGQKNSFTVDCSKAGTNMMMVGVHGPKTPCEEVYVKHMGNRVYNVTYTVKEKGDYILIVKWGDESVPGSPFKVKV
For the molecule B1, in test [1], the binding result is listed as “binds”.
On to TFRTEIKI [HSPB7 C-terminal peptide (residues 168-175, TFRTEIKI)], for which the binding result in test [2] and in test [3] was “no binding” in each case.
